PubChem BioAssay AID743456 – Peter MacCallum Cancer Centre – 2014
Aim: 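Identify miRNAs tied to vorinostat resistance or sensitivity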 (primary screen). Cells: human HCT116-VR colon cancer cells, a vorinostat-resistant HCT116 line. Reagent: miRNA mimic. Timing: about 3 days from transfection to readout; drug present for the last 24 h. Treatment: vorinostat at 2.5 µM final for 24 h. Measured: 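Per-well live-cell protease fluorescence and caspase luminescence under 2.5 µM vorinostat for 24 h, scored as robust z-scores and against mock transfection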. Direction: viability robust z-score: higher = more viable cells; caspase robust z-score: higher = more caspase activity, more apoptosis. Rule for the call: 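a mimic counts as active if it lands in a lowered-viability class or a caspase-activation class; wells with too few cells without drug are left out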.
The whole screen tested 878 reagents; this is an unselected part. Of all reagents, 27 (3.1%) got an active call. 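27 mimics are marked active, unlike an earlier stated count of 24; the viability threshold is described inconsistently.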 Entries without a mark were called inactive. Not all columns of the deposit are shown. The record does not give: the amount of reagent.

For hsa-miR-424* the deposit lists viability robust z-score 1.04; caspase robust z-score -0.63; viability hit class no change; caspase hit class no change. With hsa-miR-934, the values are viability robust z-score -0.9; caspase robust z-score 3.42; viability hit class no change; caspase hit class no change. For hsa-miR-877* the deposit lists viability robust z-score 0.06; caspase robust z-score 0.11; viability hit class no change; caspase hit class no change. For hsa-miR-369-3p, the values are viability robust z-score 0.72; caspase robust z-score -0.79; viability hit class no change; caspase hit class no change. With hsa-miR-30e, the values are viability robust z-score 1.22; caspase robust z-score -0.48; viability hit class no change; caspase hit class no change.

Reformatted: entries from further up.
miRNA	viability robust z-score	caspase robust z-score	viability hit class	caspase hit class
hsa-miR-369-3p	0.72	-0.79	no change	no change
hsa-miR-30e	1.22	-0.48	no change	no change

Next results follow:
hsa-miR-339-3p showed viability robust z-score -0.2; caspase robust z-score 4.15; viability hit class no change; caspase hit class no change. With hsa-miR-645, the values are viability robust z-score 0.18; caspase robust z-score -0.5; viability hit class no change; caspase hit class no change. For hsa-miR-548n, the entry reads viability robust z-score 0.89; caspase robust z-score -0.2; viability hit class no change; caspase hit class no change. hsa-miR-518f showed viability robust z-score -0.56; caspase robust z-score -0.41; viability hit class no change; caspase hit class no change. hsa-miR-130b showed viability robust z-score 1.13; caspase robust z-score -0.49; viability hit class no change; caspase hit class no change. hsa-miR-508-3p showed viability robust z-score -1.18; caspase robust z-score -0.8; viability hit class no change; caspase hit class no change.

hsa-miR-128 showed viability robust z-score 0.26; caspase robust z-score -0.09; viability hit class no change; caspase hit class no change.
